The record followed here is patent US4261885A (Shiraimatsu Shingaku Co., Ltd., priority 1978, dated 1981).

The nature of the data set: general procedure: solution-phase peptide synthesis; active esters (ONp, OSu) with HOBT; azide fragment condensation (isoamylnitrite/). As to conditions: coupling step, hydrochloride (crude).
Take “Boc-D-Trp-Lys[Cbz(o-Cl)]-Thr(Bzl)-Phe-OEt”: the step yield result is given as “yield=81%”.
Next, “Boc-D-Trp-Lys[Cbz(o-Cl)]-Thr(Bzl)-Phe-Thr(Bzl)-Ser(Bzl)-D-Asu-OBzl”: “yield=58%”.
Next, Boc-Lys[Cbz(o-Cl)]-Asn-Phe-Phe-OEt: “yield=86%”.
